Source: publication PMC6704105
Results are given in words; binding and its absence hold for the method and conditions named. In cells and extracts the contact can be indirect. These calls come from enrichment with a bait or labelling near it, and not all partners need be listed.

Sequences of proteins named here, by UniProt entry; tags and fusion partners are left off.
UniProt P35222: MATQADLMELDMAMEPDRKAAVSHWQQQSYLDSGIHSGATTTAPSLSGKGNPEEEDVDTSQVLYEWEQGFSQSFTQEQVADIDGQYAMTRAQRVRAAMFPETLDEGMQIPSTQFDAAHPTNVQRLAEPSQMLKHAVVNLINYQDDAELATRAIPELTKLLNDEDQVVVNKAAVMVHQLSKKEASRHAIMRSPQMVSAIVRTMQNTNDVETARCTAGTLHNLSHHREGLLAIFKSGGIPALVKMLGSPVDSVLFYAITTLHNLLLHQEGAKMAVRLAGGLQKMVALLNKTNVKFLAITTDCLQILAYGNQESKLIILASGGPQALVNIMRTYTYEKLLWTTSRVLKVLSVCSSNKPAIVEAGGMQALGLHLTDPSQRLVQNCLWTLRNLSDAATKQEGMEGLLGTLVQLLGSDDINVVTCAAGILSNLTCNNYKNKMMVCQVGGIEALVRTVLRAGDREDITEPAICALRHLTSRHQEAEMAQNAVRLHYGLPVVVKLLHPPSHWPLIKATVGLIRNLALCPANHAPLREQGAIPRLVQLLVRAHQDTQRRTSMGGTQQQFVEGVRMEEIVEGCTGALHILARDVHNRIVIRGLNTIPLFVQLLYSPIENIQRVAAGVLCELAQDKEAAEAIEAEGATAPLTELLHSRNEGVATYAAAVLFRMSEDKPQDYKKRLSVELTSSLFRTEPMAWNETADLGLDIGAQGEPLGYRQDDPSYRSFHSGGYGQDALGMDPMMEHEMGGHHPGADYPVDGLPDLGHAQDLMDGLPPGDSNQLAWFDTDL
UniProt P09874: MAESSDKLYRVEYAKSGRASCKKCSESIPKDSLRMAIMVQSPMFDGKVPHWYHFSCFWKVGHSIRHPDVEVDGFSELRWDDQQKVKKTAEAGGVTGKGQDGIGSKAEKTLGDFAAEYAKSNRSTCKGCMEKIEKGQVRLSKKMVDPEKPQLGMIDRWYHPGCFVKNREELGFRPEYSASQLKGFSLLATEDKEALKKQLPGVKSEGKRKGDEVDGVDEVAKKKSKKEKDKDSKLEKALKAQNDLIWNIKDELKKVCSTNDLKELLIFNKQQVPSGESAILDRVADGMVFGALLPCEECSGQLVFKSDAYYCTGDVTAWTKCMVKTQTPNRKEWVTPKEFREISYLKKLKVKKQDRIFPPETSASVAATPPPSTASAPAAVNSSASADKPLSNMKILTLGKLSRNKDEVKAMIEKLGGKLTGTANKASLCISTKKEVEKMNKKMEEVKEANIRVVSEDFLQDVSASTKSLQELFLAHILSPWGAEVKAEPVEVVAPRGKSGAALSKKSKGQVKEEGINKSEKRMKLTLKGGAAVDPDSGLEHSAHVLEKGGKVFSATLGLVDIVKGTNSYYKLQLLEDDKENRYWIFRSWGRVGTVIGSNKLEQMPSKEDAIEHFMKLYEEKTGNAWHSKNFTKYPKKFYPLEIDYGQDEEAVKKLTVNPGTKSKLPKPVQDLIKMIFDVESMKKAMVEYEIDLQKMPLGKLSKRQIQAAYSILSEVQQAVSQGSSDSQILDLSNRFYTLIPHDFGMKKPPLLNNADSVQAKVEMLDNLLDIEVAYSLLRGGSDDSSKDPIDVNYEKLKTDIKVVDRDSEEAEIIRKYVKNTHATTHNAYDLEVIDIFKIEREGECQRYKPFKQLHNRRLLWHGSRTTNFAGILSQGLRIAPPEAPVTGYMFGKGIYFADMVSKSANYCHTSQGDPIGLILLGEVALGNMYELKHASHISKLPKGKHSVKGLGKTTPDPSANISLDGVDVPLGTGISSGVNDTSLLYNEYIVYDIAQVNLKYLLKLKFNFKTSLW
UniProt P51532: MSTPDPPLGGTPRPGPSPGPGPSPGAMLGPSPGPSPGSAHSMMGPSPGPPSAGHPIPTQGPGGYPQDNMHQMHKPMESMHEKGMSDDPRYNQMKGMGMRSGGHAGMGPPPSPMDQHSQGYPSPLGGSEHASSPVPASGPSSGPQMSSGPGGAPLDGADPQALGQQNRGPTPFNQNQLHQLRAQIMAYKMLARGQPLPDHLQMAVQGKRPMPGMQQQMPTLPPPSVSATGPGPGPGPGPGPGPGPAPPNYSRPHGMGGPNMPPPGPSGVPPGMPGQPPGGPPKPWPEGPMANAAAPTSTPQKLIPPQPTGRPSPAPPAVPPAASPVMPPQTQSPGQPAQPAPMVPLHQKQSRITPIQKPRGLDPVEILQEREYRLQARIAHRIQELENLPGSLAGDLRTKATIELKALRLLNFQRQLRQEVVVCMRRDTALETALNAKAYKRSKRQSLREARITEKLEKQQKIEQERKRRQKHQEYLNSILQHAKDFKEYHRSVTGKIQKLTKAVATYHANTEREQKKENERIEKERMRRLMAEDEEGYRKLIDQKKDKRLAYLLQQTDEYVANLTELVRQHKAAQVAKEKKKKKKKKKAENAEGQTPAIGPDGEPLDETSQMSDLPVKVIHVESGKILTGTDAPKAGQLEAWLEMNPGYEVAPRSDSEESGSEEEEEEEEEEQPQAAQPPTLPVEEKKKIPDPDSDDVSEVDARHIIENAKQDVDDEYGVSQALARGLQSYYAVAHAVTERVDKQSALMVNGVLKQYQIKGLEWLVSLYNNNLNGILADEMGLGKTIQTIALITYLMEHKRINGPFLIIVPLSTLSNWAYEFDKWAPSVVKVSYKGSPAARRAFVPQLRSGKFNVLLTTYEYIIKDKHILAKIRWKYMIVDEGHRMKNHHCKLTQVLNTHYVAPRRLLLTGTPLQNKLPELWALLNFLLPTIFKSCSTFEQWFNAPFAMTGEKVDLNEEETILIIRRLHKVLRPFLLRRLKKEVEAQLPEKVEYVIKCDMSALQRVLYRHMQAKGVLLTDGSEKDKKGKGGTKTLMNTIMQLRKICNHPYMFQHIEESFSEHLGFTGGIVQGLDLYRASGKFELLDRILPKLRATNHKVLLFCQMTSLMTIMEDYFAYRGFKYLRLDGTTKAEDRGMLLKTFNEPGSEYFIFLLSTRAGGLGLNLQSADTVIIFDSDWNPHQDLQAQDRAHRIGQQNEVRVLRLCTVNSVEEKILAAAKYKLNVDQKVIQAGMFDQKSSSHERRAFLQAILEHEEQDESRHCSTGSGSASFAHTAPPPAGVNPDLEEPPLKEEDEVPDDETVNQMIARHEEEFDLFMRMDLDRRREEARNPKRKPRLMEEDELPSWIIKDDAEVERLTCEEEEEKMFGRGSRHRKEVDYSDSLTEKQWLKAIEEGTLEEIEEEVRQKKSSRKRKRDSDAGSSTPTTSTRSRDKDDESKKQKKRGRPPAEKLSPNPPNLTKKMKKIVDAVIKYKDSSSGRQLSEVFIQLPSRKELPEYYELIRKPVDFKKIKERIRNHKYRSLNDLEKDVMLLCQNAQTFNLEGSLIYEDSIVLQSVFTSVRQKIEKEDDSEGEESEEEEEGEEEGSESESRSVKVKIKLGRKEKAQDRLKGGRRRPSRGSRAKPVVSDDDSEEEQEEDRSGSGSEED
UniProt O43524: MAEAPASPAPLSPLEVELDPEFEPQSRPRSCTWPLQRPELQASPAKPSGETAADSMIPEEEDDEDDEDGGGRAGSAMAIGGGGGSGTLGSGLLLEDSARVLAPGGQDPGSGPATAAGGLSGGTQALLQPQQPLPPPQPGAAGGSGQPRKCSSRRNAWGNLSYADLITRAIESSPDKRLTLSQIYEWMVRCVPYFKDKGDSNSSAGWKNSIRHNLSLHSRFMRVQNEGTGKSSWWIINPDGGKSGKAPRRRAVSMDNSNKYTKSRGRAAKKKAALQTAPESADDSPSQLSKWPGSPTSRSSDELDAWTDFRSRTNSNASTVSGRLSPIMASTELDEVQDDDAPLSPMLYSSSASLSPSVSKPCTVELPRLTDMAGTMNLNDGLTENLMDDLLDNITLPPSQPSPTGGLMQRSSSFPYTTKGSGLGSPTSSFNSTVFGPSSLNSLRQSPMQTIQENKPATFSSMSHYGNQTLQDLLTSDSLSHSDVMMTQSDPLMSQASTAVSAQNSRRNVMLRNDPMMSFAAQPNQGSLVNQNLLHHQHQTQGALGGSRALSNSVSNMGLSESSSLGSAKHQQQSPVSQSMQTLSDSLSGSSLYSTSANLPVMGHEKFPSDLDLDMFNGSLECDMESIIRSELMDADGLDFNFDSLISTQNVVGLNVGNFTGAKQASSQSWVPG

B1: Jun Dimerization Protein 2 (JDP2) (protein, UniProt Q8WYK2 1-163)
chain: MMPGQIPDPSVTTGSLPGLGPLTGLPSSALTVEELKYADIRNLGAMIAPLHFLEVKLGKRPQPVKSELDEEEERRKRRREKNKVAAARCRNKKKERTEFLQRESERLELMNAELKTQIEELKQERQQLILMLNRHRPTCIVRTDSVKTPESEGNPLLEQLEKK

Biological target: β-catenin (β-catenin-transduced 293FT cells) (UniProt P35222)
Experiment: affinity purification with mass spectrometry; chromatin fraction of CPT (10 μM, 1 h)-treated β-catenin-transduced 293FT cells, treated with DNAase; anti-β-catenin antibody and protein G-agarose overnight at 4 °C; wash 25 mM HEPES pH 7.4, 150 mM NaCl, 0.5% NP-40; five bands excised for MS; anti-IgG control

Row | Molecule | binding
1 | poly (ADP-ribose) polymerase 1 (PARP1) (from UniProt P09874 1-1014) (enzyme) | binds
2 | SMARCA4 (from UniProt P51532 1-1647) | binds
3 | FOXO3 (from UniProt O43524 1-673) | binds
4 | B1 | binds
